Measurements as given in publication PMC11116412.
No constants are given. Whether binding was seen depends on the method and setting. In cells and extracts the contact can be indirect. Some binding calls cover weakened binding; strength is not graded here.

Sequences of proteins named here, by UniProt entry; tags and fusion partners are left off. Residues count along the entry.
UniProt Q32LC7: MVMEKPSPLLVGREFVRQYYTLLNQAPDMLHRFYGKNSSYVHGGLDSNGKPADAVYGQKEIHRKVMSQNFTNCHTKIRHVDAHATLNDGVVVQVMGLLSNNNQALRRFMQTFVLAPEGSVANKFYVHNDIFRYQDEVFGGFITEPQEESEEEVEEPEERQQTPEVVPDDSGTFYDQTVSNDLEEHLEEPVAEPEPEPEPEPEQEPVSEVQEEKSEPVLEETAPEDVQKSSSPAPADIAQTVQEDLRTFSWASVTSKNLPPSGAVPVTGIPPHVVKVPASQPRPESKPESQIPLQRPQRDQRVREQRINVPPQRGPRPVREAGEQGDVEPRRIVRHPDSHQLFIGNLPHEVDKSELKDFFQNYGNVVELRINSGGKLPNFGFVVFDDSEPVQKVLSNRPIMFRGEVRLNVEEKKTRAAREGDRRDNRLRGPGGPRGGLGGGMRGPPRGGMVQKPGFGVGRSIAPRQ
UniProt Q07157, residues 511-1100: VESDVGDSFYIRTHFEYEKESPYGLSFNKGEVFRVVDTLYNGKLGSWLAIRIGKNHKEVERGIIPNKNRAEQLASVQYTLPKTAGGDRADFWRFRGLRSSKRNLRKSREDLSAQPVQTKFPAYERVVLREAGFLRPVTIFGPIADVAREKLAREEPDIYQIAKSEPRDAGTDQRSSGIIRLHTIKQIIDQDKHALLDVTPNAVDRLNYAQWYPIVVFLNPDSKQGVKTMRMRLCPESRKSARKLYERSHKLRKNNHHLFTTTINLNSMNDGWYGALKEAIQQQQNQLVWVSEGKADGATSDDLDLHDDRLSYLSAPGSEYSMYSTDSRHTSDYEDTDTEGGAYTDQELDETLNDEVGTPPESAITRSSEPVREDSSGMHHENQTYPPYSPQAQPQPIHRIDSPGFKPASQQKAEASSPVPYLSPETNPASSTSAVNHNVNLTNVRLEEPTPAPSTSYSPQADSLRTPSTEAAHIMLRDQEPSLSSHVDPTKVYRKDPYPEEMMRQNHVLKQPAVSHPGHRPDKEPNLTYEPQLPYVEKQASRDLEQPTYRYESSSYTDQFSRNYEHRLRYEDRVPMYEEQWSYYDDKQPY
UniProt P67808: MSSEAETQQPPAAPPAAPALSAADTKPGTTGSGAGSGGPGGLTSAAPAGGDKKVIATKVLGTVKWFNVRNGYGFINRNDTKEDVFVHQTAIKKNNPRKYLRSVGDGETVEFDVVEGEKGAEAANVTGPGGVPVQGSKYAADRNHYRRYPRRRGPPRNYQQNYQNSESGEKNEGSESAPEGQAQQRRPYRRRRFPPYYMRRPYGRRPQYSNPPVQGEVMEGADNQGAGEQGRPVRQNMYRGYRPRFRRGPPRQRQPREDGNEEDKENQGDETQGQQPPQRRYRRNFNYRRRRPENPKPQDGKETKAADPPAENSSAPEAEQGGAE
UniProt P67809: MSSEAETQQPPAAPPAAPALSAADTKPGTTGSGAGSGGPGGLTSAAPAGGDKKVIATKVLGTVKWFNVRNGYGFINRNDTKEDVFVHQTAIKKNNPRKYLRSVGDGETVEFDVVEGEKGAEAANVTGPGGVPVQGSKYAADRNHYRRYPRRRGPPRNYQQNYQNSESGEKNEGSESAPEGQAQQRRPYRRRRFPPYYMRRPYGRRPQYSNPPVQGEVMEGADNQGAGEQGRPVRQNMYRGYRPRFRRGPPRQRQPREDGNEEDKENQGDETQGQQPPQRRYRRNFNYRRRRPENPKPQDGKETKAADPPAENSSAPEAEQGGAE

Experiments:
[1] = molecular target: Ras-GTPase-activating protein-binding protein 1 (bovine (endogenous in BAECs)) (UniProt Q32LC7); experiment: co-IP; endogenous proteins immunoprecipitated (1 µg antibody, 1 mg protein, overnight, protein A sepharose) from BAEC lysates, lysis buffer with 75 mM NaCl; immunoblot; non-immune IgG as control; cells treated or not with VEGF (40 ng/ml, 10 min), arsenite (500 µM, 30 min), MG132 or siZO-1
GST-ZO-1 (aa. 511-1100) = GST-ZO-1 (aa. 511-1100) (UniProt Q07157); experiment: pull-down; ~50 pM GST fusion protein prebound to glutathione agarose beads, incubated 4 h at 4 °C with 500 µg lysate of BAECs overexpressing myc-YB-1 (modified RIPA buffer, 110 mM NaCl); washed in 50 mM Tris-Cl pH 7.4, 125 mM NaCl; anti-myc immunoblot; only the target purified

Substance | binding [1] | binding (GST-ZO-1 (aa. 511-1100))
Y-box binding protein 1 (from UniProt P67808 1-324) | binds | –
myc-tagged YB-1 (from UniProt P67809 1-324) | – | binds
